Test results reported in patent US8822166B2, “Stimulus-elicited genomic profile markers of alzheimer's disease” (priority 2008, dated 2014).
At least one compound was matched to its structure with a doubt left. Where no end group is shown, it is not given here.

System: AD skin fibroblasts
Assay: Microarray gene expression in bradykinin-stimulated AD skin fibroblasts
Assay type: cell-based, Human
Conditions: 10 nM BK, 10 min

**Q.** For RPPGFSPFR [bradykinin, Bradykinin], which “% CHANGE, gene up-regulated in AD: Hs.8895 ESTs” value (AA147933) is on record?
**A.** 63%

**Q.** And the “% CHANGE, gene up-regulated in AD: Hs.6019 cDNA FLJ21288 fis, clone COL01927” value (AA639752)?
**A.** 475%

**Q.** What about the “% CHANGE, gene up-regulated in AD: clone FBD3 Cri-du-chat critical region mRNA” value (AF056433) of the same sequence?
**A.** 52%

**Q.** And the “% CHANGE, gene up-regulated in AD: Hs.250646 baculoviral IAP” value (AI017106)?
**A.** 285%

**Q.** What about the “% CHANGE, gene up-regulated in AD: Hs.3640 Homo sapiens mRNA” value (AI394529) of the same sequence?
**A.** 60%

**Q.** What about the “% CHANGE, gene up-regulated in AD: Hs.28959 ESTs” value (AI457436) of the same sequence?
**A.** 80%

**Q.** What about the “% CHANGE, gene down-regulated in AD: Hs.50283 ESTs, Weakly similar to DUS8_HUMAN DUAL SPECIFICITY PROTEIN PHOSPHATASE 8” value (AI492892) of the same sequence?
**A.** 74%

**Q.** What about the “% CHANGE, gene down-regulated in AD: Hs.1742 IQ motif containing GTPase activating protein 1” value (AI679073) of the same sequence?
**A.** 88%

**Q.** And the “% CHANGE, gene up-regulated in AD: EST SWlSNF related, matrix associated, actin dependent regulator of chromatin, subfamily a, member 3” value (AI760760)?
**A.** 56%

**Q.** What about the “% CHANGE, gene up-regulated in AD: Hs.293690 ESTs” value (AI816281) of the same sequence?
**A.** 62%

**Q.** What about the “% CHANGE, gene up-regulated in AD: Hs.181300 sel-1 (suppressor of lin-12, C. elegans)-like” value (AI927770) of the same sequence?
**A.** 75%

**Q.** What about the “% CHANGE, gene up-regulated in AD: Hs.214646 KIAA0447 gene product” value (AL031282) of the same sequence?
**A.** 150%

**Q.** What about the “% CHANGE, gene up-regulated in AD: Hs.30957 mRNA; cDNA DKFZp434E0626” value (AL137364.1) of the same sequence?
**A.** 86%

**Q.** And the “% CHANGE, gene up-regulated in AD: Homo sapiens full length insert cDNA clone” value (AP088033)?
**A.** 74%

**Q.** What about the “% CHANGE, gene up-regulated in AD: Hs.103189 lipopolysaccharide specific response-68 protein” value (AV740879) of the same sequence?
**A.** 154%

**Q.** And the “% CHANGE, gene up-regulated in AD: Hs.69559 K1AA1096 protein” value (AW238632)?
**A.** 46%

**Q.** And the “% CHANGE, gene down-regulated in AD: Hs.72325 Human DNA sequence from clone RP1-187J11 on chromosome 6q11.1-22.33” value (AW418666)?
**A.** 79%

**Q.** What about the “% CHANGE, gene down-regulated in AD: Hs.104613 RP42 homolog” value (AW468880) of the same sequence?
**A.** 69%

**Q.** What about the “% CHANGE, gene up-regulated in AD: Hs.283732 ESTs” value (AW611729) of the same sequence?
**A.** 97%

**Q.** And the “% CHANGE, gene up-regulated in AD: Hs.42699 ESTs” value (AW956580)?
**A.** 56%

**Q.** And the “% CHANGE, gene up-regulated in AD: Hs.265644 ESTs” value (AW963328)?
**A.** 74%

**Q.** And the “% CHANGE, gene down-regulated in AD: KIAA1080 protein; Golgi-associated, gamma-adaptin ear containing, ARF-binding protein 2” value (BC000284.1/DEF)?
**A.** 64%

**Q.** What about the “% CHANGE, gene up-regulated in AD: Similar to RIKEN cDNA 1700073K01 gene, clone MGC: 12458” value (BC005357.1) of the same sequence?
**A.** 63%

**Q.** What about the “% CHANGE, gene down-regulated in AD: Hs.20237 DKFZP566C134 protein” value (BF000166) of the same sequence?
**A.** 85%

**Q.** And the “% CHANGE, gene up-regulated in AD: K1AA1483 protein” value (BF111616)?
**A.** 84%

**Q.** And the “% CHANGE, gene up-regulated in AD: Hs.78893 KIAA0244 protein” value (BF430956)?
**A.** 61%

**Q.** What about the “% CHANGE, gene down-regulated in AD: Hs.294141 ESTs, Weakly similar to alternatively spliced product using exon 13A” value (BF433071) of the same sequence?
**A.** 75%

**Q.** What about the “% CHANGE, gene up-regulated in AD: Hs.5151 RAN binding protein 7” value (BG291787) of the same sequence?
**A.** 74%

**Q.** What about the “% CHANGE, gene up-regulated in AD: cDNA FLJ33255 fis, clone ASTRO2005553” value (BU689502) of the same sequence?
**A.** 105%

**Q.** What about the “% CHANGE, gene up-regulated in AD: mRNA for TGF-betaIIR alpha” value (D50683.1/DEF) of the same sequence?
**A.** 55%

**Q.** What about the “% CHANGE, gene down-regulated in AD: sodium channel, voltage-gated, type I, beta polypeptide (SCN1B)” value (NM_001037.1/DEF) of the same sequence?
**A.** 51%

**Q.** What about the “% CHANGE, gene up-regulated in AD: forkhead box F2 (FOXF2)” value (NM_001452.1) of the same sequence?
**A.** 97%

**Q.** And the “% CHANGE, gene down-regulated in AD: ATPase, Ca++ transporting, plasma membrane 4 (ATP2B4)” value (NM_001684.1/DEF)?
**A.** 87%

**Q.** And the “% CHANGE, gene up-regulated in AD: eukaryotic translation initiation factor 4 gamma, 3 (EIF4G3)” value (NM_003760.2/DEF)?
**A.** 68%

**Q.** What about the “% CHANGE, gene down-regulated in AD: phosphoserine phosphatase-like (PSPHL)” value (NM_003832.1/DEF) of the same sequence?
**A.** 77%

**Q.** And the “% CHANGE, gene up-regulated in AD: ubiquitin specific protease 8 (USP8)” value (NM_005154.1/DEF)?
**A.** 79%

**Q.** And the “% CHANGE, gene down-regulated in AD: protein kinase, AMP-activated, beta 2 non-catalytic subunit (PRKAB2)” value (NM_005399.1/DEF)?
**A.** 72%

**Q.** And the “% CHANGE, gene down-regulated in AD: paired mesoderm homeo box 1 (PMX1), transcript variant pmx-1a” value (NM_006902.2/DEF)?
**A.** 66%

**Q.** What about the “% CHANGE, gene up-regulated in AD: Ste-20 related kinase (SPAK)” value (NM_013233.1) of the same sequence?
**A.** 46%

**Q.** And the “% CHANGE, gene up-regulated in AD: nuclear autoantigen (GS2NA)” value (NM_014574.1)?
**A.** 71%

**Q.** And the “% CHANGE, gene up-regulated in AD: RBP1-like protein (BCAA)” value (NM_016374.2/DEF)?
**A.** 68%

**Q.** And the “% CHANGE, gene down-regulated in AD: adaptor protein with pleckstrin homology and src homology 2 domains (APS) mRNA” value (NM_020979.1/DEF)?
**A.** 99%

**Q.** What about the “% CHANGE, gene down-regulated in AD: similar to CG9578 gene product (MGC3794)” value (NM_152902.1) of the same sequence?
**A.** 61%

**Q.** What about the “% CHANGE, gene down-regulated in AD: Hs.112451 ESTs” value (T86629) of the same sequence?
**A.** 76%
